Our source for the binding values is publication PMC10648710.

Protein sequences, listed by entry. Tags and fused reporters are not part of them. Lines headed by an entry give the natural chain unless they say otherwise; changes in a name come on top.
UniProt A2DLR2: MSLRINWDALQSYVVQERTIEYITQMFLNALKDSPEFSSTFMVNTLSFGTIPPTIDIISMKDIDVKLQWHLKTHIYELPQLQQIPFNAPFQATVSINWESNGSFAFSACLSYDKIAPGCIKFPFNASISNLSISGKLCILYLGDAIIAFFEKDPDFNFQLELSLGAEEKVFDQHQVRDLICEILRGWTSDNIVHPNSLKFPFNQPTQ
UniProt A2DK90: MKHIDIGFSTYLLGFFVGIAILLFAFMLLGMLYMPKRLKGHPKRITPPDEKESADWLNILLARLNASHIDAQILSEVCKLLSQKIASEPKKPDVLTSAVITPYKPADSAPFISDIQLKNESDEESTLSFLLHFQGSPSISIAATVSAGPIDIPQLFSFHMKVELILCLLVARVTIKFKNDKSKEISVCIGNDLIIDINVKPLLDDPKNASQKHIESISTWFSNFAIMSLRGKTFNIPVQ
UniProt A2EJI4: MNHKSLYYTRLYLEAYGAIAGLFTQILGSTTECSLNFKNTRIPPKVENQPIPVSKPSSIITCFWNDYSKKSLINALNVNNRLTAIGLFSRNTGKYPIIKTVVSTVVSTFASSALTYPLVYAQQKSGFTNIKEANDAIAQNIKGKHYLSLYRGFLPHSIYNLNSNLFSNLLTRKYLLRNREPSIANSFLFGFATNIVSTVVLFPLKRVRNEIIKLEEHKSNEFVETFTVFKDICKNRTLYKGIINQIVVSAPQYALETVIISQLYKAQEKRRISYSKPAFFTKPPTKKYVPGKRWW

Common to all, as to assay: affinity purification with mass spectrometry; T. vaginalis cells expressing C-terminally HA-tagged bait cross-linked with 1 mM DSP (room temperature, 30 min), solubilised in 50 mM TRIS, 150 mM NaCl, pH 7.2 with 1% Triton X-100; anti-HA Dynabeads 90 min at room temperature; LFQ MS against untransfected T1 control, FDR 0.05, S = 1; three independent coIPs for each bait
Test [1] deals with T1, Porin2 (Trichomonas vaginalis) (UniProt A2EKF2).
T1 sequence: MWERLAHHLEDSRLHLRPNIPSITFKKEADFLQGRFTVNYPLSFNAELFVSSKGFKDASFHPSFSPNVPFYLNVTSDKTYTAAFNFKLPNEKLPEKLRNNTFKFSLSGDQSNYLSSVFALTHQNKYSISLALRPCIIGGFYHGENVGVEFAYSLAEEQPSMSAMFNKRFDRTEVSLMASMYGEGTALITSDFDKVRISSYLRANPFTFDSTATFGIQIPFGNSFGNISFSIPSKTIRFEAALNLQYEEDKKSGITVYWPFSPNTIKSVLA

In test [2] the target is TvMdm12 (Trichomonas vaginalis) (UniProt A2DLR2).
The target in test [3] is T2, TvMmm2b (Trichomonas vaginalis) (UniProt A2G1M4).
T2 sequence: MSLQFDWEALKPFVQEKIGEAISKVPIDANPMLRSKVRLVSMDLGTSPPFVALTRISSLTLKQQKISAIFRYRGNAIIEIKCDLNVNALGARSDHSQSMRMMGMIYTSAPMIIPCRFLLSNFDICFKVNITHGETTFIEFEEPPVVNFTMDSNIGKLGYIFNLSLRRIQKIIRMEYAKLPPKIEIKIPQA

In test [4] the target is TvMmm1a (Trichomonas vaginalis) (UniProt A2DK90).
Test [5] concerns the target T3, TvMmm1b (Trichomonas vaginalis) (UniProt A2FPM6).
T3 sequence: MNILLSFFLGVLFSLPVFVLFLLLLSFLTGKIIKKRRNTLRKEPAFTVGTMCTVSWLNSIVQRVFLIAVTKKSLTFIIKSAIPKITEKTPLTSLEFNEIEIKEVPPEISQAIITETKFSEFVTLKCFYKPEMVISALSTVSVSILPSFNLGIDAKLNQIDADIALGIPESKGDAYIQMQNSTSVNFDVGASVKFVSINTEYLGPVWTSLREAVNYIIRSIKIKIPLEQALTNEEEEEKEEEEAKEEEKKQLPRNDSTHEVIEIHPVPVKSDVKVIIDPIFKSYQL

Results are given in words; binding and its absence hold for the method and conditions named. Binding seen in cells or lysates may run through a third protein. These calls come from enrichment with a bait or labelling near it, and not all partners need be listed. For part of these data: No binding means not detected with the bait.

For Sam50, in test [1], the binding result is given as “binds”.

With Hmp36-1, in test [1], the binding result is “binds”.

Turning to Hmp35-2, the binding result in test [1] is recorded as “binds”. For TvMmm1a (from UniProt A2DK90), the binding result in test [1] was “no binding”. Take “mitochondrial carrier protein (TVAG_197670) (from UniProt A2EJI4)”: the binding result in test [2], in test [1] and in test [3] was “binds” each time. For the molecule Hmp36-2, in test [1], the binding entry is “binds”.

B1: Porin2 (protein, UniProt A2EKF2 1-270)
chain: T1 sequence
As to B1, the binding entry in test [2] was “binds”; in test [4], “no binding”; in test [5], “no binding”.

B2: TvMmm1d (protein, UniProt A2FL26 1-187)
chain: MFGTRPIPYKMTKESTDWLNFIIYRVLTHFQTPESIAKINALVNDKVKPAKFELLTLGNSPVIPYVATLDVNNKDDIKILIPLTWEEGPSLNFSMLNENLTAEVDLKLFKGTLLVSWPTNQEIDLEIRFINDCKIDFDVSLILFKNTWLPLSSIPLFGPVIKGLISFFMTKGAIKVKAEIQIPDELR
As for B2, the binding entry in test [4] is “binds”.

B3: protein with EF hand-type calcium-binding domain (TVAG_290210) (protein, UniProt A2F7P7 1-766)
chain: MEHVLLFLNDMREKARRKGGNLYDMFEEYDPKQTGLISFTNFRKLLANINLFVDDEKFEFITTPYSEGTNFYYAVFLHDMEDAKVDKTNKTISIEELRQFGSTFRDQGTDVAGCLKLYDRHHTGRVDPQVFFRYVSNTPLAQKIAAEYMNSATREIEYMRLNQDIQNALAQKPPSTPRIDSSQLPAFFPDLAKWMKSQAIDPVQLLMRYDRYKRRQIPTAQFLSEVANWGVPLKPLQLNELAAAFDYQGQFDYMAFADEIQKIQTTLTKPTSARKPVIDLNEILNRLTEFIQNRRPTLVDQIEGFDIRHNGTVPSQRFFRVLTNSGFSLTNDECGVIENEFGDINGNIDYNRFFSQVMPKSAPQANPDEIVIRLNNFLKANKMQLKPRLERFDNTRSGSVTFAQMSAAFRAIGFDLTAPEQSALKAAYGHGPEGIVDYIDFYDLVDPKFEKPKEEKLEPLPRHDRNEDASISLAAMTKIAAICDRYQHNLSGEFRKYDMKNNGLILPDAFRCVIQNLPMRVEDNETEVLTKFYTSAGGYVSYEQFCQDMVDFGSKRIMQNPKIQTDLLAQEKTNSQNVDLVLHKLKIFLMNGRISPDTIFLPYDASSSGLIPRSRLQPILEGIGFPGLPSDFAVLGKAFADPRLPEKLNYKKLCQEINAINIDQRELAETRVDNLSETVADASTLRINCMIREKLAERHKRVRQPFSGVTSQLMSQRDFRRCIESYGLVIKEADMQNIMRVYKRNMNGDIDWNRFCTDVENANVIH
Consider B3, for which the binding result in test [2] and in test [3] was “binds” throughout.

B4: PloopNTPase (TVAG_190360) (protein, UniProt A2DKG4 1-465)
chain: MTEKESNHPDTELEEGKIEQEESKTNAHETLKETEAQLESAFKEAADEKSATPSKWEQWKPYLLKFREPKVIYTITFIYILLFLIILLWKLIAFRRSKVEYETPIGYIWNMKFKNEIIKYINQRRHDQFVIVHGPKGYGKTRGIRVLSSELISEGRTPFIFDFQKISKTATKKDARKVLQSQLLMNLMKIDGRTIDIPMAKAVQLLTPLTVLKETVPKTIHFQFKDQNLQKIASLLLQIAYGFERNPATTMNNLFEAIDALAALRPVIFIVSPEILLNNNHKEISDLYTSILQNLRSFAEAYKSTPTVTEISDQTLVPEILTIPSCRALYLGELQFEEVESLSNDKYFNLNDVKKIYNKFGGYGGAFATIRDNRRDGIPIQSTIDEIDFSDKEWLSTVVYSSKNVKKTVAYLKDVASVKKDVLYNPENEECFYLVKSGIISILEDNKRLTFQSKSLKALFDSSSF
As for B4, the binding result in test [1] and in test [5] was “binds” throughout.

B5: TvMmm1b (protein, UniProt A2FPM6 1-285)
chain: T3 sequence
B5: the binding result in test [4] is reported as “binds”; in test [1], “no binding”.
